PubChem BioAssay AID2417 (National Center for Advancing Translational Sciences (NCATS), 2010)
In all, about 140,000 compounds went through this assay and about 4,300 (3.1%) were called active. This list was built around the results that the source calls inconclusive (neither active nor inactive); the mix of calls is not that of the screen.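 The calls were made as follows: active = readout at or below -70, meaning at least 70% loss of cells showing the perinucleolar compartment, a nuclear body marking cancer cells; inconclusive = readout between -30 and a set limit; inactive = the rest.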

Test: High Content Assay for Compounds that inhibit the Assembly of the Perinucleolar Compartment;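 also: plate controls were DMSO wells for no effect and camptothecin positive control wells for full effect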
Conditions: PC3M PTB-GFP, PNC prevalence imaging, 16 h; at 10 µM; active compounds read low
Outline: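 Read-out is percentage of cells bearing a perinucleolar compartment, from automated 20x imaging of fixed, Hoechst-stained PC3M PTB-GFP cells. Cells were seeded 4 h, then exposed 16 h to compound (23 nl of library stock) in duplicate plates.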
In the case of `CCN1CCCC1CNC(=O)CSCc1nc(-c2ccccc2C)oc1C` (stereo unspecified), the activity change (PNC), negative = inhibition is reported as inactive: 3.17%. For `CCCS(=O)(=O)N1CCCC(C(=O)NCC2CCCO2)C1` (stereo unspecified), the activity change (PNC), negative = inhibition was inconclusive: -34.9%. In the case of `CC(C)=C1C2CCC1C1C(=O)N(c3ccc4c(c3)OCO4)C(=O)C21` (stereo unspecified), the activity change (PNC), negative = inhibition is reported as inactive: -21.3%. For `CN(C)CCCn1c(SCC(=O)N2c3ccccc3Sc3ccccc32)nc2ccccc2c1=O`, the activity change (PNC), negative = inhibition was inconclusive: -58.9%. With `CC(C)N1C(=O)C2C(C(=O)NC3CCCCC3)C3C=CC2(O3)C1C(=O)NC1CCCC1` (stereo unspecified) the activity change (PNC), negative = inhibition was inconclusive: -54.3%. In the case of `C/C(Cc1ccccc1)=N\NC(=O)CNC(=O)c1ccc(Br)cc1`, the activity change (PNC), negative = inhibition is reported as inconclusive: -43.5%. With `O=C(c1cccc(COc2ccc(Cl)cc2Cl)c1)N1CCN(c2ccccn2)CC1` the activity change (PNC), negative = inhibition was inactive: 12.2%. For `c1csc(-c2nn3c(C4COc5ccccc5O4)nnc3s2)c1` (stereo unspecified), the activity change (PNC), negative = inhibition was inactive: -15.3%. With `OCc1cn(-c2ccccc2)nc1-c1ccc(-c2nn(-c3ccccc3)cc2CO)cc1` the activity change (PNC), negative = inhibition was inactive: 22%. In the case of `Cc1ccsc1C(=O)NC(C)c1ccc2c(c1)OCO2` (stereo unspecified), the activity change (PNC), negative = inhibition is reported as active: -119%. In the case of `COC(=O)c1sccc1NC(=O)CSc1cc(Cl)ccc1Cl`, the activity change (PNC), negative = inhibition is reported as inconclusive: -66.2%. In the case of `O=C1c2ccccc2CC1(Cc1ccccc1)Cc1ccccc1`, the activity change (PNC), negative = inhibition is reported as inconclusive: -35.8%. For `COc1ccc(OCC(=O)Nc2nnc(-c3ccco3)s2)cc1`, the activity change (PNC), negative = inhibition was active: -113%. In the case of `C/C(=N/Nc1nc(-c2ccc(Cl)cc2)cs1)c1cccs1`, the activity change (PNC), negative = inhibition is reported as inconclusive: -51.2%. In the case of `Cc1cccc(C(=O)Oc2ccc(/C=N/NC(=O)c3ccccc3O)cc2)c1`, the activity change (PNC), negative = inhibition is reported as inactive: 8.76%. In the case of `Cc1[nH]n(-c2ccccc2)c(=O)c1C(C[N+](=O)[O-])c1ccc(Br)cc1` (stereo unspecified), the activity change (PNC), negative = inhibition is reported as inactive: -8.61%. With `CCOc1ccc(C(=O)N(Cc2ccc(N(C)C)cc2)C2CCS(=O)(=O)C2)cc1` (stereo unspecified) the activity change (PNC), negative = inhibition was inconclusive: -69.5%. For `COc1ccc(N2CCN(C(=O)c3ccc4nc(N5CCCCC5)sc4c3)CC2)cc1`, the activity change (PNC), negative = inhibition was inconclusive: -48.3%. With `CC(=O)Nn1cc2c(c1-c1ccccc1)c(=O)n(C)c(=O)n2C` the activity change (PNC), negative = inhibition was active: -138%. In the case of `CCn1c(=O)c2c(cnn2C)c2ccccc21`, the activity change (PNC), negative = inhibition is reported as inactive: -13.8%. With `N#CCc1ccc(C(=O)c2ccccc2F)s1` the activity change (PNC), negative = inhibition was inactive: 5.45%. For `O=C1NC(=S)S/C1=C/c1ccc(N2CCOCC2)o1`, the activity change (PNC), negative = inhibition was inactive: -14.4%. For `COc1ccc(NC(=O)Cn2nnc(-c3ccccc3NC(=O)c3cccs3)n2)cc1`, the activity change (PNC), negative = inhibition was inconclusive: -52%. With `CCOCCCNS(=O)(=O)c1ccc2c(c1)CCN2C(C)=O` the activity change (PNC), negative = inhibition was inconclusive: -32%. For `c1ccc2c(c1)NC1(CCCCCC1)n1c-2nc2ccccc21`, the activity change (PNC), negative = inhibition was inconclusive: -41.1%. With `COc1cc2c(cc1NC(=S)NC(=O)/C=C/c1ccc(OC)c(OC)c1)oc1ccccc12` the activity change (PNC), negative = inhibition was inconclusive: -42.4%. For `O=C(c1ccc(Br)o1)N1CCN(c2ccc(F)cc2)CC1`, the activity change (PNC), negative = inhibition was inconclusive: -34.8%. With `Cc1nc2cc(NC(=O)N3CCCCC3)ccc2n1C` the activity change (PNC), negative = inhibition was active: -119%. With `O=C(NNS(=O)(=O)c1ccccc1[N+](=O)[O-])c1cccc([N+](=O)[O-])c1` the activity change (PNC), negative = inhibition was inactive: 8.44%. In the case of `O=C(Nc1ccc2c(c1)CCC2)c1cccc(S(=O)(=O)N2CCN(c3ccccc3)CC2)c1`, the activity change (PNC), negative = inhibition is reported as inconclusive: -60.3%. In the case of `COc1cccc(/C=C2/CN(C)CC3=C2OC(N)=C(C#N)C3c2cccc(OC)c2)c1` (stereo unspecified), the activity change (PNC), negative = inhibition is reported as inconclusive: -48.4%. In the case of `O=C(CN1CCC(Cc2ccccc2)CC1)NC(=O)NCc1ccccc1`, the activity change (PNC), negative = inhibition is reported as inconclusive: -31.9%. In the case of `Cc1c(C(=O)O)oc2ccc(S(=O)(=O)NCc3ccc(F)cc3)cc12`, the activity change (PNC), negative = inhibition is reported as inactive: 0%. With `COC(=O)c1ccccc1NC(=O)CSc1ccccn1` the activity change (PNC), negative = inhibition was inactive: 6.08%. For `Cc1cc(C)n(C(=O)c2ccc(S(=O)(=O)N3CCCC3)cc2)n1`, the activity change (PNC), negative = inhibition was inactive: 5.75%. For `C/C(N)=C(/C#N)C(=O)COC(=O)c1cc(-c2cccc(Br)c2)nc2ccccc12`, the activity change (PNC), negative = inhibition was inconclusive: -31.3%. In the case of `CC/C(=N\NC(=O)c1ccncc1)C12CC3CC(CC(C3)C1)C2`, the activity change (PNC), negative = inhibition is reported as inconclusive: -62.6%. For `Cc1cccc(OC(C)c2ccnc3nc(/N=C/N(C)C)nn23)c1` (stereo unspecified), the activity change (PNC), negative = inhibition was inconclusive: -38.5%. With `O=C(Cc1ccccc1)Nc1cccc(N2CCCC2)c1` the activity change (PNC), negative = inhibition was inconclusive: -39.3%. In the case of `CCC1(C)Cc2c(sc3nnn(CC(=O)Nc4ccc(C)cc4)c(=O)c23)CO1` (stereo unspecified), the activity change (PNC), negative = inhibition is reported as inconclusive: -32.4%. For `Cc1cc(=O)n(-c2ccc3ccccc3n2)[nH]1`, the activity change (PNC), negative = inhibition was inactive: 20.1%. For `Cc1ccc(S(=O)(=O)N(C)C)cc1NC(=O)CSc1ncc(C(F)(F)F)cc1Cl`, the activity change (PNC), negative = inhibition was inconclusive: -33.9%. For `Clc1ccc(OCc2nn3c(-c4ccccc4)nnc3s2)c(Cl)c1`, the activity change (PNC), negative = inhibition was inconclusive: -47.8%. With `CCc1ccccc1NS(=O)(=O)c1ccc2[nH]cc(C(=O)NC3CCCC3)c(=O)c2c1` the activity change (PNC), negative = inhibition was inactive: 21%. In the case of `CCOC(=O)c1ccc(NC(=S)N(CCCN2CCCCC2)Cc2ccco2)cc1`, the activity change (PNC), negative = inhibition is reported as inconclusive: -31%. With `CCN(CC)c1ccc(NC2=C(Cl)C(=O)c3ccccc3C2=O)cc1` the activity change (PNC), negative = inhibition was inconclusive: -39.6%.
